Results: US6576771B1, “Oxymethoxy-3-aryl-pyrone derivatives” (Bayer Aktiengesellschaft, priority 1995, dated 2003)
Some of these results come from one statement about several compounds together. At least one structure is not confirmed: it was looked up by name or label, or the drawing left a doubt. Some ranges recur; such a range may be that of the whole group of compounds.

Assays:
Pyricularia oryzae = type: in vivo; conditions: active compound concentration 0.05%; protective, rice; evaluation 4 days after inoculation
[1] = tested on: apple scab causative organism (Venturia inaequalis); assay: Venturia test (apple) / protective; conditions: active compound concentration 100 ppm, evaluation 12 days after inoculation
Botrytis cinerea = assay: Botrytis test (bean) / protective; conditions: active compound concentration 500 ppm, evaluation 3 days after inoculation
[2] = tested on: peach aphid (Myzus persicae); assay: Myzus test; type: in vivo; conditions: after 6 days; active compound concentration 0.1%; cabbage leaves dipped

SMILES | activity in comparison with the untreated control (Pyricularia oryzae) | activity in comparison with the untreated control [1] | activity in comparison with the untreated control (Botrytis cinerea) | degree of destruction [2]
CCOCOc1c(C)c(-c2ccc(F)cc2)oc(=O)c1-c1c(C)cc(C)cc1C [Example 4] | 70-100% | 95-99% | 94-99% | –
CCOCOc1cc(CC(C)C)oc(=O)c1-c1c(C)cc(C)cc1C [Example 5] | 70-100% | – | – | –
Cc1cc(C)c(-c2c(OCOCC(C)C)c(C)c(-c3ccc(F)cc3)oc2=O)c(C)c1 [Example 8] | 70-100% | – | – | –
Cc1cc(C)c(-c2c(OCOC(C)C)c(C)c(-c3ccc(F)cc3)oc2=O)c(C)c1 [Example 9] | 70-100% | 95-99% | 94-99% | 95 to 100%
